This passage reports binding results from publication PMC11656939.

Chains of the proteins cited; added tags and fusions are not shown.
UniProt Q99832: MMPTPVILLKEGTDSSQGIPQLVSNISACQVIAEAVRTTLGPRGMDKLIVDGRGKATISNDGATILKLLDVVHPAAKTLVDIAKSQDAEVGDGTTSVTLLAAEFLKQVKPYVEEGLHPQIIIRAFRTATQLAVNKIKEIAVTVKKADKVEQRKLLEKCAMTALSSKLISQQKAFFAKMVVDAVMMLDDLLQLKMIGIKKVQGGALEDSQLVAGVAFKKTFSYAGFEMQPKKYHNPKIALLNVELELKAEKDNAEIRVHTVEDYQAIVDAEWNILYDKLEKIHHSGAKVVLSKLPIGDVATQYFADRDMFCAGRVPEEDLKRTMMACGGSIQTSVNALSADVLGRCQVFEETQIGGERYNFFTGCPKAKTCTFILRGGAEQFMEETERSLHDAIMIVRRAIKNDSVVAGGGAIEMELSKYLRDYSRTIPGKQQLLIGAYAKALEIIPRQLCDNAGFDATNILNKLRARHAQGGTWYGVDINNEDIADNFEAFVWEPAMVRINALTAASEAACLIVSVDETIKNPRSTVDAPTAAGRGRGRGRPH
UniProt P60520: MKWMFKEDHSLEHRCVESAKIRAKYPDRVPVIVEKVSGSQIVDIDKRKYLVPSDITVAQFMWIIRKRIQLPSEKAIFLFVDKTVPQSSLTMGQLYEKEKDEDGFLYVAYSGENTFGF
UniProt P31749: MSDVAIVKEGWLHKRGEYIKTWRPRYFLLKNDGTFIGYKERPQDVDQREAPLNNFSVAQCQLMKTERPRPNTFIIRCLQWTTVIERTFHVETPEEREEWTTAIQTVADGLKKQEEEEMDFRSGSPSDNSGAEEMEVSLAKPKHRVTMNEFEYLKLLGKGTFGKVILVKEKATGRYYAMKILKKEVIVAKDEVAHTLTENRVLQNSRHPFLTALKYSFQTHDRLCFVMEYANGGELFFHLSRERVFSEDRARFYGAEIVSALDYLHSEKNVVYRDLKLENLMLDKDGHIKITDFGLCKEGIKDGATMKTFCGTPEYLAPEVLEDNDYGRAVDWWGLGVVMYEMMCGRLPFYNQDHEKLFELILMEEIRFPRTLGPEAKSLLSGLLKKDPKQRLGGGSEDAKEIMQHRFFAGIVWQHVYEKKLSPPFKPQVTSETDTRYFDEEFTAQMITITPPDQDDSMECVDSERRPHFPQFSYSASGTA
UniProt O95292: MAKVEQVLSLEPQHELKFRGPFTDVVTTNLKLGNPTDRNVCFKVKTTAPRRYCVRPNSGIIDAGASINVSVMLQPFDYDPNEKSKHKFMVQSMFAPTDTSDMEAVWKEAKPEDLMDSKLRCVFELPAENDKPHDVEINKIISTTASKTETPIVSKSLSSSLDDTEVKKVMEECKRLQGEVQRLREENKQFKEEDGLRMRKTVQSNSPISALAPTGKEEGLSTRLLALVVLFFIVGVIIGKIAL

No constants are given. Whether binding was seen depends on the method and setting. In cells and extracts the contact can be indirect. A yes stands for co-enrichment or nearness to the bait. Other partners may have been found. A no says only that the protein was not detected with the bait. Sequences can lack the tags named with a protein.

For this test, the target named is T1, ORP7-mycBirA (UniProt Q9BZF2).
T1 sequence: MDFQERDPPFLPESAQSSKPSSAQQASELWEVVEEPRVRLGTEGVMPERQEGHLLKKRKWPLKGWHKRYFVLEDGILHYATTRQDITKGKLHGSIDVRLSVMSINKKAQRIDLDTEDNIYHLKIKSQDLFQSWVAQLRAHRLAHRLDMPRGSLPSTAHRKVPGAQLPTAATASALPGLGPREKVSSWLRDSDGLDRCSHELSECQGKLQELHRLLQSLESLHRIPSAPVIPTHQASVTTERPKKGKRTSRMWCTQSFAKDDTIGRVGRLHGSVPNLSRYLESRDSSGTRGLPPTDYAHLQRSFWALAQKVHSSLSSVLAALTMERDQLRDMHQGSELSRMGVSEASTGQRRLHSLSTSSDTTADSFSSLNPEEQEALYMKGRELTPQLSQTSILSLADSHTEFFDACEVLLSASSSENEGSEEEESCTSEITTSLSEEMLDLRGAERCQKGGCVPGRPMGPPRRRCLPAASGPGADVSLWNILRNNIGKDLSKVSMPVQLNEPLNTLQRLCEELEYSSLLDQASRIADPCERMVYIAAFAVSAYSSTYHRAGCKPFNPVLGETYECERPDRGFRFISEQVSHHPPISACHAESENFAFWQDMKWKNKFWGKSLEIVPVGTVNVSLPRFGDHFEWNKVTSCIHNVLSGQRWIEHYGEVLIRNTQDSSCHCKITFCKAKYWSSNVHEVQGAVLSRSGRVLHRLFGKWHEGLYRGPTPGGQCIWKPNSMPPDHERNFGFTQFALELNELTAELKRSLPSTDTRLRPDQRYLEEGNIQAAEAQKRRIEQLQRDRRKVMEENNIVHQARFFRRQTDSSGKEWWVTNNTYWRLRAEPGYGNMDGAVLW
Briefly: proximity labelling; ORP7-mycBirA bait in lentivirally transduced HUVECs against mycBirA control cells; three 10-cm plates per sample; captured proteins by LC-MS/MS; filtered with SAINT and CRAPome.
For the substance “Chaperonin Containing TCP1 subunit 7 (CCT7) (from UniProt Q99832 1-543)”, the binding entry was “binds”.

Consider “GABA type A receptor-associated protein like 2 (GABARAPL2) (from UniProt P60520 1-117)”, for which the binding entry was “no binding”.

For the substance “RAC-alpha serine/threonine-protein kinase (AKT1) (from UniProt P31749 1-480)”, the binding result is on record as “binds”.

For the substance VAPB (from UniProt O95292 1-243), the binding entry is reported as “no binding”.
